Data taken from PubChem BioAssay AID248 (DTP/NCI, 2004).
The list shows only some results of the screen, not a fair sample: it is rich in T/C values a quarter to a half above the control, in often repeated tests (any T/C) and in doses without a T/C. Further doses and runs are listed elsewhere. T/C is the treated group as % of the vehicle group. Some entries give survivors of the animals treated and no T/C: the source holds a T/C of zero for them, seemingly a mark for toxic or unscored doses. Some survivor counts are full or nearly so, which does not show that the dose was tolerated: the source hardly ever lists a survival T/C far under the control, and the zero likely stands for such cases as well. Survivors were counted at the toxicity check, usually on the fifth day, unless a day is given; later deaths do not show. Schedule codes are those of the source, taken here to give the interval after Q, in days (D) or hours (H), and the number of doses after X.

Tested on: L1210 leukemia ip in BDF1 mice, survival T/C
Assay: NCI In Vivo Anticancer Drug Screen. Data for tumor model L1210 Leukemia (intraperitoneal) in B6D2F1 (BDF1) mice
Settings: T/C endpoint: mean survival time, higher T/C = longer survival
[1] = dose: 200.0 mg/kg/injection, schedule: Q01DX009 (ip), vehicle: saline
[2] = dose: 400.0 mg/kg/injection, schedule: Q01DX009 (ip), vehicle: Klucel (hydroxypropylcellulose) (HPC)
[3] = dose: 200.0 mg/kg/injection, schedule: Q01DX001 (ip), vehicle: saline
[4] = dose: 100.0 mg/kg/injection, schedule: Q04DX002 (ip), vehicle: Klucel (hydroxypropylcellulose) (HPC)
[5] = dose: 400.0 mg/kg/injection, schedule: Q04DX002 (ip), vehicle: Klucel (hydroxypropylcellulose) (HPC)
[6] = dose: 200.0 mg/kg/injection, schedule: Q04DX003 (ip), vehicle: Klucel (hydroxypropylcellulose) (HPC)

## CN(C)Cc1c[nH]c2nccnc12
dose: 200.0 mg/kg/injection, schedule: Q04DX003 (ip), vehicle: saline
  survivor count: 3 of 6
dose: 400.0 mg/kg/injection, schedule: Q01DX009 (ip), vehicle: saline
  survivor count: 0 of 6
dose: 400.0 mg/kg/injection, schedule: Q04DX003 (ip), vehicle: saline
  survivor count: 0 of 6

## C1CCC2C[N-]CCC2C1.C1CCC2C[N-]CCC2C1.C1CCC2C[N-]CCC2C1.C1CCC2C[N-]CCC2C1.[I][Fe][I] (stereo not given)
[1]
  survivor count: 3 of 6

## COC(=O)c1ccc(OC(=O)Nc2ccc(F)c([N+](=O)[O-])c2)cc1
[2]
  survivor count: 3 of 6

## CCCCCC(=O)NC1CCCCC1
dose: 300.0 mg/kg/injection, schedule: Q01DX001 (ip), vehicle: saline
  survivor count: 2 of 6

## CCCOP(=O)(N1CC1(C)C)N1CC1(C)C (stereo not given)
dose: 400.0 mg/kg/injection, schedule: Q04DX002 (ip), vehicle: saline
  survivor count: 3 of 3

## O=C(CSc1cc(Cl)ccc1Cl)Nc1ccc(Cl)cc1Cl
dose: 400.0 mg/kg/injection, schedule: Q04DX003 (ip), vehicle: carboxymethylcellulose (CMC)
  survivor count: 6 of 6

## COc1ncnc2c1ccn2C1OC(CO)C(O)C1O (stereo not given)
[3]
  survivor count: 0 of 4

## Nc1ncnc2oc(-c3ccccc3)c(-c3ccccc3)c12
dose: 25.0 mg/kg/injection, schedule: Q04DX002 (ip), vehicle: saline with Tween-80
  survivor count: 3 of 3

## Cc1ccc(S(=O)(=O)SC(Cl)(Cl)Cl)cc1
dose: 100.0 mg/kg/injection, schedule: Q01DX009 (ip), vehicle: saline
  survivor count: 0 of 3
[1]
  survivor count: 0 of 3

## Cc1ccc(NC(=O)COc2ccc(Cl)cc2)c(C)c1
[2]
  survivor count: 6 of 6

## Nc1nc(N)nc(N)n1
[4]
  survivor count: 3 of 3
dose: 1500.0 mg/kg/injection, schedule: Q01DX009 (ip), vehicle: Klucel (hydroxypropylcellulose) (HPC)
  survivor count: 6 of 6
dose: 2000.0 mg/kg/injection, schedule: Q01DX009 (ip), vehicle: Klucel (hydroxypropylcellulose) (HPC)
  survivor count: 6 of 6

## COC(=O)C(=O)CC(=O)c1cccc(Cl)c1
[4]
  survivor count: 3 of 3
dose: 200.0 mg/kg/injection, schedule: Q04DX002 (ip), vehicle: Klucel (hydroxypropylcellulose) (HPC)
  survivor count: 2 of 3
[5]
  survivor count: 0 of 3

## O=[N+]([O-])CC1=CCCCC1
dose: 100.0 mg/kg/injection, schedule: Q01DX001 (ip), vehicle: Klucel (hydroxypropylcellulose) (HPC)
  survivor count: 1 of 6
dose: 200.0 mg/kg/injection, schedule: Q01DX001 (ip), vehicle: Klucel (hydroxypropylcellulose) (HPC)
  survivor count: 0 of 6
dose: 400.0 mg/kg/injection, schedule: Q01DX001 (ip), vehicle: Klucel (hydroxypropylcellulose) (HPC)
  survivor count: 0 of 6

## O=C(CCCCCCC(=O)C[n+]1ccccc1Br)C[n+]1ccccc1Br
dose: 50.0 mg/kg/injection, schedule: Q01DX001 (ip), vehicle: saline
  survivor count: 0 of 6
dose: 100.0 mg/kg/injection, schedule: Q01DX001 (ip), vehicle: saline
  survivor count: 0 of 6
[3]
  survivor count: 0 of 6

## Nc1ccc(OCc2ccc(S(=O)(=O)F)c(Cl)c2)c(Cl)c1
dose: 400.0 mg/kg/injection, schedule: Q01DX009 (ip), vehicle: other
  survivor count: 1 of 6

## CC(=O)Nc1ccc(/C=N\NC(=O)N/N=C/c2ccc(NC(C)=O)cc2)cc1
[6]
  survivor count: 6 of 6

## CC1(C)N=C(N)N=C(N)N1c1cccc(Cc2ccccc2)c1
dose: 100.0 mg/kg/injection, schedule: Q01DX001 (ip), vehicle: saline with Tween-80
  survivor count: 0 of 6

## COc1cccc(/C(C#N)=C\O)c1
dose: 400.0 mg/kg/injection, schedule: Q04DX002 (ip), vehicle: saline with Tween-80
  survivor count: 3 of 3

## c1ccc([C@H]2CN3CCSC3=N2)cc1
dose: 40.0 mg/kg/injection, schedule: Q01DX009 (ip), vehicle: saline
  survivor count: 2 of 6

## COC1OC(CI)C(OS(C)(=O)=O)C(OC(=O)c2ccccc2)C1OC(=O)c1ccccc1 (stereo not given)
[5]
  survivor count: 3 of 3

## CC(C)(C)C[CH2][Hg][Cl]
dose: 25.0 mg/kg/injection, schedule: Q04DX003 (ip), vehicle: Klucel (hydroxypropylcellulose) (HPC)
  survivor count: 3 of 6
dose: 100.0 mg/kg/injection, schedule: Q04DX003 (ip), vehicle: Klucel (hydroxypropylcellulose) (HPC)
  survivor count: 0 of 6
[6]
  survivor count: 0 of 6
dose: 400.0 mg/kg/injection, schedule: Q04DX003 (ip), vehicle: Klucel (hydroxypropylcellulose) (HPC)
  survivor count: 1 of 6
